This experiment can be described thus: qHTS Assay to Find Inhibitors of Chronic Active B-Cell Receptor Signaling. The conditions noted are these: ABC-DLBCL IkBa-CBG/CBR reporter, luminescence ratio (green luciferase fused to IkBa over red control in TMD8 lymphoma cells), 4 h. A digest of the protocol:
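Compounds up to 46 uM were incubated four hours with TMD8 cells whose green CBG68 luciferase is fused to IkappaBalpha; red CBR luminescence normalised the signal, and concentration-effect curves were fitted to fusion, red and ratio data.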

[1] abbreviates: measured here: CBR red luminescence, cell number.
Where [2] appears, read: measured here: IkBa-CBG green luminescence.

The list shows a part of the results. These are further read-outs of the screen, such as a control signal, another cell line or another target. No call is given for them. Compounds called inactive in the main read-out are mostly missing here. Words in brackets tell the shape of the fitted curve; partial curves, single points and poor fits give uncertain potencies.

For the compound `COc1ccc2nc(NC(=O)C3CC(=O)N(c4ccccc4)C3)sc2c1` (configuration not stated), the half-maximal activity concentration (AC50) under setting [1] was 5.01 µM [falling, partial curve, poor fit]. Turning to `Cc1cccn2cc(CNS(=O)(=O)c3cccc(F)c3)nc12`, the AC50 under setting [1] was 3.66 µM [rising, full curve, poor fit].

As for `COc1ccccc1-c1sc2ccccc2c1-c1ccccc1OC`, the AC50 under setting [1] is 16.4 µM [rising, single point]. The same measure, in the same setting: with `COc1cccc(NC(=O)Cc2csc(NC(=O)Nc3ccccc3OC)n2)c1` the figure was 18.4 µM [falling, partial curve, poor fit]; with `CCOC(=O)CN(C(=O)CSc1nnc2c(n1)[nH]c1ccc(OC)cc12)c1ccc(F)cc1`, 6.31 µM [falling, single point]; with `CC(=O)c1ccc(NC(=O)Nc2ccccc2)cc1`, 14.6 µM [falling, partial curve, poor fit]. In the case of `Cc1ccc(NC(=S)N/N=C2/CCCc3c(C)cc(C)cc32)cc1`, the concentration at half-maximal activity (AC50) under setting [1] was 29.1 µM [rising, single point]. The same measure, in the same setting: with `Cc1ccc(NC(=O)CSc2nnc(-c3ccccn3)n2N)c(Br)c1` the figure was 6.31 µM [falling, partial curve]. Same read-out and setting: with `C=CCOC(=O)C1=C(C)N=C2SCCC(=O)N2C1/C=C/c1ccccc1` (configuration not stated) the figure was 35.5 µM [falling, single point]. For `CCC(C)Nc1nc(-c2c[nH]c3ccccc23)cs1` (configuration not stated), the AC50 under setting [1] was 1.26 µM [falling, full curve]. The same measure, in the same setting: under `COC(=O)c1ccc(OCC(=O)c2ccc(O)cc2O)cc1` stands 20 µM [falling, single point]; under `O=C(Nc1cccnc1)Nc1ccc(Cl)cc1Cl`, 10 µM [rising, partial curve, poor fit]. With `ClCc1nnc(-c2cc3c(s2)CCCC3)o1`, the half-maximal activity concentration (AC50) under setting [1] is 22.4 µM [falling, single point].

On to `COc1ccc(-c2ccc(=O)n(Cc3cc(=O)n4ccccc4n3)n2)cc1`, for which the AC50 under setting [1] is 29.1 µM [rising, single point]. The same measure, in the same setting: under `O=C(NCc1ccccc1)C(=O)NCC(c1ccco1)N1CCN(c2ccccc2F)CC1` (configuration not stated) stands 35.5 µM [rising, single point]; under `COc1ccc(/C=C(/NC(=O)c2ccccc2)C(=O)NC(Cc2c[nH]c3ccccc23)C(=O)O)cc1` (configuration not stated), 7.08 µM [falling, partial curve, poor fit]. Turning to `CCN(CC)C(=O)CC(c1cc(OC)c(OC)c(OC)c1)c1c(OC)cc(OC)c2ccc(=O)oc12` (configuration not stated), under setting [1], the AC50 is 35.5 µM [rising, single point]. With `CCOC(=O)C1(CCc2ccccc2)CCN(C(=O)C2=C(C)OCCO2)CC1`, under setting [1], the AC50 was 35.5 µM [falling, single point]. For the compound `COc1ccc(NC(=O)c2cc3cccc(OC)c3oc2=Nc2ccc(C(=O)O)cc2)cc1OC`, under setting [1], the half-maximal activity concentration (AC50) was 0.316 µM [falling, full curve]. On the same count and under the same terms, with `COc1ccc(-c2nc(SCC(=O)NC3CCCCC3)n[nH]2)cc1` the figure was 8.91 µM [falling, partial curve, poor fit]; with `O=c1[nH]c(=O)n(C2C[C@H](O)[C@@H](CO)O2)cc1C(F)(F)F` (some centres not stated), 7.31 µM [rising, partial curve, poor fit]. Take `COC(=O)[C@H](CCSC)NC(=O)Nc1ccc(C(C)C)cc1`: under setting [1], the AC50 is 5.62 µM [rising, partial curve]. Consider `CSc1cccc(NC(=O)/C=C/c2cccc(Cl)c2)c1`, for which, under setting [1], the half-maximal activity concentration (AC50) was 23.1 µM [falling, single point]. On to `Clc1ccc(OCCOCCN2CCCCC2)c(Br)c1`, for which the AC50 under setting [1] is 3.55 µM [falling, full curve, poor fit]. With `NS(=O)(=O)c1ccc(CCNC(=O)c2ccccc2-c2ccccc2)cc1`, the AC50 is 3.55 µM [falling, single point] under setting [1] and 3.16 µM [rising, partial curve, poor fit] under setting [2].

With `O=C(NCc1ccccc1)C12CC3CC(CC(C3)C1)C2`, under setting [1], the AC50 is 6.51 µM [rising, single point]. Still for that read-out and setting: under `Cc1ccccc1C(=O)Nc1nnc(CC(=O)N/N=C/c2ccco2)s1` stands 8.91 µM [falling, partial curve]; under `Cc1onc(-c2ccccc2Cl)c1C(=O)OCC(=O)Nc1cccc(S(=O)(=O)N(C)C)c1`, 35.5 µM [falling, single point]. As for `O=C(Nc1ccccc1)N1CCCN(c2ccc(C(F)(F)F)cn2)CC1`, the AC50 under setting [1] was 8.91 µM [rising, partial curve, poor fit].

As to `Oc1ccccc1N=Nc1nc(-c2ccccc2)c(-c2ccccc2)[nH]1`, the half-maximal activity concentration (AC50) under setting [1] was 29.1 µM [falling, single point]. The same measure, in the same setting: with `O=C(NCc1ccco1)c1cccc2c1C(=O)c1ccc(/C=C/c3ccccc3)cc1S2(=O)=O` the figure was 10.3 µM [falling, partial curve]; with `Cc1csc(NC(=O)CCC(=O)N(CC(=O)NC2CCCC2)c2ccccc2)n1`, 20 µM [falling, partial curve, poor fit]; with `CC(=O)Nc1ccccc1C(=O)C(=O)Nc1ccc(F)cc1`, 3.98 µM [rising, single point]. As for `C[C@]12C=CC(=O)C=C1CC[C@@H]1[C@@H]2[C@@H](O)C[C@@]2(C)[C@H]1CC[C@]2(O)C(=O)CO`, under setting [2], the AC50 is 0.631 µM [falling, partial curve, poor fit]. For `O=c1[nH]n(-c2ncnc3c2cnn3-c2ccccc2)c(=O)c2ccccc12`, the AC50 under setting [1] is 12.6 µM [falling, single point].

In the case of `COc1cc(OC)c2c(c1)C(=O)c1cc(OC)cc(OC)c1C2=O`, the AC50 under setting [1] was 0.355 µM [falling, full curve]. The same measure, in the same setting: under `CCOC(=O)c1c(SCC(=O)Nc2nc(C)cs2)nc(=O)[nH]c1C` stands 3.55 µM [falling, partial curve, poor fit]; under `Cc1cc(NC(=O)c2ccccc2C)no1`, 10 µM [falling, partial curve]; under `Cc1nc(NC(=O)/C=C/c2ccccc2)sc1C(=O)N(C)C`, 1.46 µM [rising, partial curve, poor fit]. Same read-out and setting: with `O=C1C2CC=CCC2C(=O)N1c1n[nH]c(CCc2ccccc2)n1` (configuration not stated) the figure was 18.4 µM [rising, single point]. Consider `CCC(C)[C@@H](NC(=O)OC(C)(C)C)c1nnc(S(=O)(=O)Cc2cccc(C)c2)o1` (some centres not stated), for which the AC50 under setting [1] was 7.94 µM [falling, partial curve]. In the case of `CCC(=O)NC(=S)Nc1cccc(Cl)c1N1CCCCC1`, the AC50 by setting is: under setting [1], 25.1 µM [rising, single point]; under setting [2], 31.6 µM [falling, single point]. With `Nc1[nH]nc2nc(NCc3ccccc3)c3c(c12)CCN(Cc1ccccc1)C3`, the AC50 under setting [1] is 3.98 µM [rising, full curve, poor fit]. Take `Cc1nc(-c2coc3cc(OCC(=O)O)ccc3c2=O)cs1`: the concentration at half-maximal activity (AC50) under setting [1] is 20 µM [falling, single point]. For the compound `CN1CCN(C(=O)/C=C\c2ccc(Cl)cc2)CC1`, the concentration at half-maximal activity (AC50) under setting [1] is 4.61 µM [rising, full curve, poor fit]. Regarding `O=C(CSc1nncs1)Nc1ccc2c(c1)OCCO2`, the concentration at half-maximal activity (AC50) under setting [1] was 11.6 µM [falling, partial curve]. Regarding `COC(CNC(=O)c1ccc2nc3ccccc3c(=O)n2c1)OC`, the AC50 under setting [1] was 1.78 µM [falling, full curve, poor fit]. The same measure, in the same setting: under `Cc1ccc(-n2c3c(cc(C(=O)Nc4cccc(C)n4)c2=O)C(=O)CCC3)cc1` stands 0.13 µM [falling, full curve, poor fit].

Regarding `C(=N\Nc1nc2ccccc2s1)/c1ccco1`, the concentration at half-maximal activity (AC50) under setting [1] is 11.2 µM [falling, partial curve]. Still for that read-out and setting: under `CC1CCCCC1NC(=O)Cc1ccc(S(=O)(=O)N2CCOCC2)s1` (configuration not stated) stands 2.06 µM [rising, partial curve]; under `Cc1ccc(-c2nc3ccsc3c(=O)o2)cc1`, 0.708 µM [falling, full curve, poor fit].

For `COc1ccc(/C(C)=N/NC(=S)Nc2cc(C)ccc2C)cc1`, the AC50 is, setting by setting: under setting [1], 22.4 µM [falling, partial curve, poor fit]; under setting [2], 28.2 µM [falling, single point].

Turning to `C[C@]12c3[nH]c4ccc(Cl)cc4c3CCN1C(=O)[C@@H](CC(=O)NCCC1=CCCCC1)C[C@@H]2C(=O)N1CCCCC1`, the AC50 under setting [1] was 3.26 µM [rising, partial curve, poor fit]. Still for that read-out and setting: with `CCOC(=O)c1ccc(CSC(=N)N)o1` the figure was 7.94 µM [falling, partial curve]; with `Cc1cccc(N2C(=O)c3cccc4c(N(C)CCO)ccc(c34)C2=O)c1`, 22.4 µM [falling, partial curve, poor fit].

Turning to `C/C(CC(=O)Nc1cccc2c1CCCC2)=N\NC(=O)c1cccc2ccccc12`, under setting [1], the AC50 is 9.2 µM [falling, partial curve, poor fit]. Consider `COc1ccc2cc(CN(CC3CCCO3)S(=O)(=O)c3ccccc3Cl)c(=O)[nH]c2c1` (configuration not stated), for which the AC50 under setting [1] was 10.3 µM [falling, partial curve]. The same measure, in the same setting: under `COc1ccc(C2CC(c3ccccc3)n3nnnc3N2)cc1` (configuration not stated) stands 7.31 µM [rising, partial curve, poor fit]. Consider `CC(C)C(C)NC(=O)COc1ncnc2ccccc12` (configuration not stated), for which the AC50 is 20.6 µM [falling, single point] under setting [1] and 18.4 µM [rising, partial curve, poor fit] under setting [2]. Regarding `O=C(Nc1ccc(Cl)cc1)N1CCOC12CCC1(CC2)OCCO1`, the AC50 under setting [1] was 20 µM [rising, single point]. For the compound `COCc1ccc(C(=O)N2CCCC(C(=O)c3cc(F)ccc3F)C2)s1` (configuration not stated), the AC50 under setting [1] is 17.8 µM [rising, single point]. Consider `O=c1[nH]cc(F)c(=O)[nH]1`, for which the AC50 under setting [1] was 29.1 µM [rising, partial curve, poor fit]. With `Cc1ccc(C(=O)N2CCCC(CCC(=O)NCc3ccccc3F)C2)cn1` (configuration not stated), under setting [1], the AC50 was 5.62 µM [rising, partial curve, poor fit].

Values taken from PubChem BioAssay AID493014 (National Center for Advancing Translational Sciences (NCATS), 2011).
